Measured values published in patent US20050106179A1.
No constants are given. Whether binding was seen depends on the method and setting. Some results given as binding are weak or reduced against the parent protein; the word gives no strength. Sequences can lack the tags named with a protein.

The chains behind the UniProt entries cited, without tags or fusion partners. Residues count along the entry.
UniProt O00206, residues 24-839: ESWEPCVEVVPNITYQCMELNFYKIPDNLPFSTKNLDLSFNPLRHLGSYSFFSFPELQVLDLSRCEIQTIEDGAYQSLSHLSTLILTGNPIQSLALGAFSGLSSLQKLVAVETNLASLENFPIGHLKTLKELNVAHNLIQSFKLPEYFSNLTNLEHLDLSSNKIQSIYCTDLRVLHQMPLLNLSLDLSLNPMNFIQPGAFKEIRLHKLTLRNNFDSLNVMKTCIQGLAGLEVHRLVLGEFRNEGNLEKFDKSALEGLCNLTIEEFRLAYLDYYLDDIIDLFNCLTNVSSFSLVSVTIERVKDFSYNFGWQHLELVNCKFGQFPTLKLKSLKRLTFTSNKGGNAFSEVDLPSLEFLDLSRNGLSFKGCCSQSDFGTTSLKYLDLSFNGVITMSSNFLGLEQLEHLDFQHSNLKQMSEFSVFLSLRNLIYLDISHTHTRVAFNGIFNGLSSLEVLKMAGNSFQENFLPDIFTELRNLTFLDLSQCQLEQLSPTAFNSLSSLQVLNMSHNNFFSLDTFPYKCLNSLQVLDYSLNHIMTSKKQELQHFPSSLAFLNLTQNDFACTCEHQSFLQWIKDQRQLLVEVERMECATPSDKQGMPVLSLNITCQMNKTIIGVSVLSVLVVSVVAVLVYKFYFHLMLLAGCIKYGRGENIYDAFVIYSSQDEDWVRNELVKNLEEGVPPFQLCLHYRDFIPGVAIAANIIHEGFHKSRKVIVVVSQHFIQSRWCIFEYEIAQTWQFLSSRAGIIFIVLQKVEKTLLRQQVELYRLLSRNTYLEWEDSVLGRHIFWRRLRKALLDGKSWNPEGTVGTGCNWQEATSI

Legend:
[1] = target: Toll-like receptor 4 (TLR4) stably expressed on HEK293 cells (HEK/TLR4) (UniProt O00206); experiment: cell association of radiolabelled complex with HEK/TLR4 against parental HEK cells, liquid scintillation counting
[2] = target: Toll-like receptor 4 (TLR4) stably expressed on HEK293 cells (HEK/TLR4) (UniProt O00206); experiment: cell association of radiolabelled complex (0.75 ng LOS/ml) with HEK/TLR4 cells, overnight at 37 C
[3] = target: Toll-like receptor 4 (TLR4) stably expressed on HEK293 cells (HEK/TLR4) (UniProt O00206); experiment: cell association of radiolabelled complex with HEK/TLR4 cells
[4] = target: Toll-like receptor 4 (TLR4) stably expressed on HEK293 cells (HEK/TLR4) (UniProt O00206); experiment: competition: excess free MD-2 against [^3H]-LOS-MD-2 (0.75 ng/ml) on HEK/TLR4 cells, cell-associated radioactivity

Binder	binding [1]	binding [2]	binding [3]	binding [4]
[^3H]-LOS-MD-2 complex (monomeric complex of wild-type N. meningitidis lipooligosaccharide with recombinant wt MD-2-His6, Mr~25,000) (protein) QKQYWVCNSSDASISYTYCDKMQYPISINVNPCIELKRSKGLLHIFYIPRRDLKQLYFNLYITVNTMNLPKRKEVICRGSDDDYSFCRALKGETVNTTISFSFKGIKFSKGKYKCVVEAISGSPEEMLFCLEFVILHQPNSNHHHHHH	binds	binds	binds	–
soluble polyhistidine-tagged recombinant wild-type MD-2 (MD-2-His6), in conditioned insect cell culture medium (protein, human) QKQYWVCNSSDASISYTYCDKMQYPISINVNPCIELKRSKGLLHIFYIPRRDLKQLYFNLYITVNTMNLPKRKEVICRGSDDDYSFCRALKGETVNTTISFSFKGIKFSKGKYKCVVEAISGSPEEMLFCLEFVILHQPNSNHHHHHH	–	–	–	binds
